Experimental data: PubChem BioAssay AID1224826 (NIAID, 2016)

Test: 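Knock-downs that raise or lower Tnf reporter signal after endotoxin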 (primary screen)
System: RAW264.7 G9 macrophages from mouse bearing reporters for p65 (GFP) and the Tnf promoter (mCherry)
Knock-down reagent: siRNA pool against mouse genes, 100 nM
Timing: 16 h of LPS stimulation, after 2 days of siRNA transfection
Treatment: bacterial lipopolysaccharide (Salmonella minnesota R595), 10 ng/ml
Detection: 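Nuclear mCherry signal of the Tnf promoter reporter measured by imaging after background removal, scaled to each plate median and turned into robust z-scores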
Direction: Tnf reporter robust z-score: higher = stronger Tnf promoter reporter signal after LPS
Rule for the call: 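Called active when robust z-score is at most -1.3, matching the median of the Tlr4 knock-down control, or over 3; control wells and wells with under 50 cells never active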
Calls: active = Tnf reporter clearly lowered or raised; inactive = no clear change in Tnf reporter
In all, the deposit lists about 17,000 reagents; below is a random part of them. Of all reagents, about 1,110 (6.6%) got an active call. 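Active means lowered or raised reporter signal; replicate intensities are raw and not normalised per plate.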 Not all columns of the deposit are shown.

no.	gene symbol	PubChem SID	Tnf reporter robust z-score	fewer than 50 cells in well	call
1	Eid2	SID315481846	0.65	enough cells in well	inactive
2	Il17d	SID315479420	-0.4	enough cells in well	inactive
3	Scg2	SID315469108	-0.27	enough cells in well	inactive
4	Polr2k	SID315468003		fewer than 50 cells per well; well left out of calls	inactive
5	Trim26	SID315470099	0.24	enough cells in well	inactive
6	Prl8a1	SID315474697	-0.31	enough cells in well	inactive
7	Grm6	SID315476680	-0.03	enough cells in well	inactive
8	Cd300ld3	SID315481829	0.48	enough cells in well	inactive
9	Bpifb5	SID315478661	-1.38	enough cells in well	active
10	Ankrd24	SID315474097	-1.38	enough cells in well	active
11	Or1n1b	SID315480563	0.56	enough cells in well	inactive
12	Epcip	SID315474961		fewer than 50 cells per well; well left out of calls	inactive

Part of the list above, reduced to “Tnf reporter robust z-score”.
Eid2 [SID315481846]	0.65
Il17d [SID315479420]	-0.4

The list goes on:
no.	gene symbol	PubChem SID	Tnf reporter robust z-score	fewer than 50 cells in well	call
13	Or4k15	SID315480007	2.8	enough cells in well	inactive
14	Irf4	SID315467493	0.18	enough cells in well	inactive
15	F12	SID315471935	0.16	enough cells in well	inactive
16	Epb41l4b	SID315471201	0.24	enough cells in well	inactive
17	Foxl1	SID315466713	0.12	enough cells in well	inactive
18	Mill2	SID315479712	-0.14	enough cells in well	inactive
19	Or5p4	SID315480548	0.05	enough cells in well	inactive
20	Or7g29	SID315480190		fewer than 50 cells per well; well left out of calls	inactive
21	Dis3l	SID315477816	0.58	enough cells in well	inactive
22	Hoxa9	SID315467257	-0.09	enough cells in well	inactive
23	Prelid1	SID315472475	-0.76	enough cells in well	inactive
24	Ccl2	SID315469134	1.7	enough cells in well	inactive
